# Measurements published in PubChem BioAssay AID493014 (National Center for Advancing Translational Sciences (NCATS), 2011).
# Among all 340,000 compounds or so, about 170 (0.05%) were called active. Inconclusive means that the source gave no clear call. Such entries were picked first, then a sample of the others. Calls follow the shape of the dose curve; as a rule, active = well fitted inhibition curve with a large enough effect in the signal ratio, with a control signal flat (not every such curve was filed as active); inconclusive = small, poorly fitted or top-dose-only effect, or effect the other way, or a change in a side signal; inactive = flat fitted curve, though single readings scatter; the % refers to the signal ratio. A potency beside an inconclusive call is a rough fit, not a confirmed value.
# Test: qHTS Assay to Find Inhibitors of Chronic Active B-Cell Receptor Signaling;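 as to activity change, negative = inhibition: plate controls were basal doxycycline-induced cells for no effect and cells given 10 µM MG132 for full effect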
# Settings: ABC-DLBCL IkBa-CBG/CBR reporter, luminescence ratio (green luciferase fused to IkBa over red control in TMD8 lymphoma cells), 4 h; activity change, negative = inhibition: at 46.1 µM (top of the series) unless noted
# Summary of the method: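 Cell line TMD8 (human ABC DLBCL), stably expressing tet-inducible CBG68-IkBa fusion and CBR; IMDM/0.5% FBS; cpd up to 46 uM; dox induction, 4 h, 37C/5% CO2; dual luminescence; green/red ratio; MG132 control.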
# Potency is read from the fitted curve at half-maximal effect.
SMILES,"activity change, negative = inhibition",Potency
Cc1ccc2c(CN(C)Cc3cccc(F)c3)cc(=O)oc2c1,inconclusive: 2.53%,–
Oc1ccc(CCC2CCCCN2Cc2nc(C3CC3)no2)cc1 (stereo unspecified),–,"inconclusive: 15.8 µM [falling, partial curve]"
CC1CCCC(C)N1C(=O)CSc1nc(N)c(-c2ccccc2)c(=O)[nH]1 (stereo unspecified),–,"inconclusive: 9.2 µM [rising, partial curve, poor fit]"
O=C(N/N=C/c1cccnc1)NC12CC3CC(CC(C3)C1)C2,–,"inconclusive: 5.62 µM [falling, single point]"
Cc1cccc(NC(=S)Nc2ccc(Cl)c(Cl)c2)c1,inconclusive: 11.4%,–
COc1ccc(CN2C(=O)C(C)Oc3ccccc32)cc1 (stereo unspecified),inconclusive: -0.0133%,–
CCCCc1cc(=O)oc2cc(C)c(CN3CCCC3)c(O)c12,inconclusive: 9.6%,–
CN(CC(=O)Nc1ccc(F)cc1)CC(=O)NC1CCCCC1,inconclusive: -16.5%,–
Cc1ccc(C(=O)Nc2cccc(C(=O)N/N=C/c3ccccc3F)c2)cc1,inconclusive: -1.81%,–
Fc1cc(Br)ccc1NC(=S)NCCc1ccccc1,inactive: 0.81%,–
Cc1cc(=O)[nH]c(SCC(=O)NCCc2ccccc2)n1,inconclusive: -6.3%,–
CC(C)NC(=O)c1ccc(-c2cccc(C(F)(F)F)c2)o1,inconclusive: 4.5%,–
CC1CCCCC1NC(=O)CCC(=O)N1CCOc2ccc(Cl)cc21 (stereo unspecified),inactive: -1.53%,–
CCc1cccc(C)c1NC(=O)CN(C)Cc1ccc(Br)cc1,inconclusive: -1.66%,–
Cc1nc2ccc([N+](=O)[O-])cc2c(=O)n1Cc1cccc(Br)c1,inconclusive: 10%,–
C/C(=N\Nc1cccc(C(=O)O)c1)c1ccc2c(c1)Nc1ccccc1S2,–,"inconclusive: 1.26 µM [rising, full curve]"
Cc1ccc(S(=O)(=O)N2CCCCC2)cc1NC(=O)c1cc(F)c(F)c(F)c1F,inconclusive: -3.18%,–
O=C(Nc1nc2ccc(F)cc2s1)C1=COCCO1,–,"inconclusive: 14.6 µM [falling, partial curve]"
CN(C(=O)COC(=O)c1cc2ccccc2oc1=O)C1CCCCC1,inconclusive: 1.06%,–
CS(=O)(=O)N1CCN(c2ccccc2NC(=O)c2cccnc2)CC1,inconclusive: 12.6%,–
COc1ccccc1NC(=O)Nc1nc(CC(=O)NCc2ccc(F)cc2)cs1,inconclusive: -5.63%,–

# Filtered by structure: those above with a Cl atom (2)
SMILES,"activity change, negative = inhibition",Potency
Cc1cccc(NC(=S)Nc2ccc(Cl)c(Cl)c2)c1,inconclusive: 11.4%,–
CC1CCCCC1NC(=O)CCC(=O)N1CCOc2ccc(Cl)cc21 (stereo unspecified),inactive: -1.53%,–

# Further records follow.

SMILES,"activity change, negative = inhibition",Potency
Fc1ccc(-n2cc(-c3ccccc3)[n+]3c2SCC3)cc1,inactive: -1.45%,–
CNC(=O)c1cc(Nc2nnc(-c3ccc(O)cc3)c3ccccc23)ccc1OC,–,"inconclusive: 25.1 µM [falling, partial curve]"
Cc1ccc(C)c(SCC(=O)c2ccc[nH]2)c1,–,"inconclusive: 35.5 µM [falling, partial curve, poor fit]"
Cn1c2ccccc2c2nnc(SCC(=O)NC3CC3)nc21,inactive: -0.0102%,–
O=C(NNC(=S)NC1CCCCC1)c1ccc2c(c1)OCO2,–,"inconclusive: 10.3 µM [falling, partial curve]"
Cc1ccc(NS(=O)(=O)c2cc(NC(=O)c3cc(=O)[nH]c(=O)[nH]3)ccc2Cl)c(C)c1,inconclusive: 1.15%,–
N#C/C(=C\c1ccncc1)c1ccc(NC(N)=O)cc1,inconclusive: -7.9%,–
Cc1ccc2nc(Cl)c(/C=N/n3c(C)nnc3C)cc2c1,inconclusive: 0.538%,–
COc1ccc(-c2nc(CN(CC3CCC(=O)N3)C(C)C)c(C)o2)c(C)c1C (stereo unspecified),inconclusive: -38.8%,–
COC(=O)Nc1ccc(S(=O)(=O)N2CCCCC2C(=O)NCc2ccco2)cc1 (stereo unspecified),inconclusive: 7.69%,–
C=C[C@@H]1c2c(F)cccc2N(S(=O)(=O)c2ccc(C)cc2)[C@H](c2ccc(OC(C)=O)cc2)C1(C#N)C#N,inconclusive: 4.6%,–
COc1ccc(OCC(=O)Nc2cc(OC)cc(OC)c2)cc1,–,"inconclusive: 8.91 µM [falling, partial curve]"
N#CC1=C(N)N=C(SCc2cccc3ccccc23)C(C(N)=O)C12CCCCC2 (stereo unspecified),–,"inconclusive: 0.82 µM [rising, full curve, poor fit]"
COc1cccc(C(=O)Nc2ccc(S(=O)(=O)Nc3onc(C)c3C)cc2)c1,inconclusive: 9.59%,–
N#Cc1c(SCC(=O)N2CCCCC2)nsc1SCC(=O)N1CCCCC1,inconclusive: 2.77%,–
O=C1C=C(NCC2CCCO2)C2(CCCCC2)O1 (stereo unspecified),inconclusive: -6.75%,–
C/C(=N\NC(=O)c1ccn(C)n1)c1ccc(NC(=O)C2CCC2)cc1,–,"inconclusive: 25.1 µM [falling, single point]"
COc1cc(Br)cc(/C=C/c2ccc3cccc(O)c3n2)c1OC,inconclusive: -2.01%,–
COC(=O)CS(=O)(=O)c1nnc([C@H](Cc2ccccc2)NC(=O)OC(C)(C)C)o1,inconclusive: -3.36%,–
CCN(C(=O)c1cc2c(=O)[nH]c3ccc(C)cc3c2s1)c1cccc(C)c1,inactive: 3.15%,–
